Results are given in words; binding and its absence hold for the method and conditions named. For part of these data: In cells and extracts the contact can be indirect. Some entries that bind do so weakly or less than the wild type. For part of these data: Sequences can lack the tags named with a protein.
What was measured:
[1] = molecular target: 53BP1, endogenous in mouse embryonic fibroblasts (mouse (endogenous in MEFs)) (UniProt P70399); assay: co-IP; endogenous proteins; IPs with anti-53BP1, anti-ACLY or control IgG from extracts of 53BP1+/+ or 53BP1-/- MEFs and of control or 53BP1-depleted HeLa cells; RIPA buffer, Protein G Sepharose, 4 °C overnight; western blot
[2] = molecular target: T1, HA-53BP1-N (aa 1–699; N-terminal S/T-Q motif) (human), Q12888; assay: co-IP; HA-tagged 53BP1 constructs and GFP-tagged ACLY constructs co-transfected in HEK293T cells; RIPA buffer, Protein G Sepharose, 4 °C overnight; western blot; settings: remark: other sources report otherwise
T1 chain: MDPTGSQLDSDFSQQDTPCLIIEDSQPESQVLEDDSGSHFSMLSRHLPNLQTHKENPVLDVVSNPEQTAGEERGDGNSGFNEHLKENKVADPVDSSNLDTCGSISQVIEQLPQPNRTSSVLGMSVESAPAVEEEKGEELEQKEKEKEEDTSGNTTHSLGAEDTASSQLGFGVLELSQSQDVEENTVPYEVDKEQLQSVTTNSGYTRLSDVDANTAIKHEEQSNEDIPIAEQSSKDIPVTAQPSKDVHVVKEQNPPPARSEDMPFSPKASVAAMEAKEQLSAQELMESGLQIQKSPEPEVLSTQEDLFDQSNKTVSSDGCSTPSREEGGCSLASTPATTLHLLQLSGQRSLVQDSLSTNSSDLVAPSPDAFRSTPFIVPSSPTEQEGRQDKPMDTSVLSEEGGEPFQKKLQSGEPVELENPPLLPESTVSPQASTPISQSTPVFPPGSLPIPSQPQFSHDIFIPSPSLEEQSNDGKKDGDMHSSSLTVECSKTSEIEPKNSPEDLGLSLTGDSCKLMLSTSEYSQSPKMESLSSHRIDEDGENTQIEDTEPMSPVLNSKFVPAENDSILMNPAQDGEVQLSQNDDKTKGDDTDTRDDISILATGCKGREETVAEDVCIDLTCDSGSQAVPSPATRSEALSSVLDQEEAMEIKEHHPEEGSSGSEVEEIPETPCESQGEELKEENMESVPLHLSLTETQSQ

[3] = molecular target: T2, GST-53BP1-N (GST-tagged N-terminus of 53BP1) (human), Q12888; assay: pull-down; GST or GST-53BP1-N on Glutathione Sepharose 4B beads, 200 ng purified ACLY in 0.5 ml binding buffer (20 mM Tris-HCl pH 7.5, 150 mM NaCl, 0.5% NP40, 1 mM EDTA, 1 mM DTT, 10% glycerol), 4 °C, 90 min; washed with NTEN (300 mM NaCl); anti-ACLY western blot; both purified; settings: remark: other sources report otherwise
T2 chain: T1 chain

B1: ACLY, endogenous in mouse embryonic fibroblasts (enzyme, UniProt Q91V92 1-1091)
chain: MSAKAISEQTGKELLYKYICTTSAIQNRFKYARVTPDTDWAHLLQDHPWLLSQSLVVKPDQLIKRRGKLGLVGVNLSLDGVKSWLKPRLGHEATVGKAKGFLKNFLIEPFVPHSQAEEFYVCIYATREGDYVLFHHEGGVDVGDVDAKAQKLLVGVDEKLNTEDIKRHLLVHAPEDKKEVLASFISGLFNFYEDLYFTYLEINPLVVTKDGVYILDLAAKVDATADYICKVKWGDIEFPPPFGREAYPEEAYIADLDAKSGASLKLTLLNPKGRIWTMVAGGGASVVYSDTICDLGGVNELANYGEYSGAPSEQQTYDYAKTILSLMTREKHPEGKILIIGGSIANFTNVAATFKGIVRAIRDYQGPLKEHEVTIFVRRGGPNYQEGLRVMGEVGKTTGIPIHVFGTETHMTAIVGMALGHRPIPNQPPTAAHTANFLLNASGSTSTPAPSRTASFSESRADEVAPAKKAKPAMPQGKSATLFSRHTKAIVWGMQTRAVQGMLDFDYVCSRDEPSVAAMVYPFTGDHKQKFYWGHKEILIPVFKNMADAMKKHPEVDVLINFASLRSAYDSTMETMNYAQIRTIAIIAEGIPEALTRKLIKKADQKGVTIIGPATVGGIKPGCFKIGNTGGMLDNILASKLYRPGSVAYVSRSGGMSNELNNIISRTTDGVYEGVAIGGDRYPGSTFMDHVLRYQDTPGVKMIVVLGEIGGTEEYKICRGIKEGRLTKPVVCWCIGTCATMFSSEVQFGHAGACANQASETAVAKNQALKEAGVFVPRSFDELGEIIQSVYEDLVAKGAIVPAQEVPPPTVPMDYSWARELGLIRKPASFMTSICDERGQELIYAGMPITEVFKEEMGIGGVLGLLWFQRRLPKYSCQFIEMCLMVTADHGPAVSGAHNTIICARAGKDLVSSLTSGLLTIGDRFGGALDAAAKMFSKAFDSGIIPMEFVNKMKKEGKLIMGIGHRVKSINNPDMRVQILKDFVKQHFPATPLLDYALEVEKITTSKKPNLILNVDGFIGVAFVDMLRNCGSFTREEADEYVDIGALNGIFVLGRSMGFIGHYLDQKRLKQGLYRHPWDDISYVLPEHMSM
[1]
  binding: binds

B2: GFP-ACLY (full length), P53396-1 1-1101 (enzyme)
chain: MSAKAISEQTGKELLYKFICTTSAIQNRFKYARVTPDTDWARLLQDHPWLLSQNLVVKPDQLIKRRGKLGLVGVNLTLDGVKSWLKPRLGQEATVGKATGFLKNFLIEPFVPHSQAEEFYVCIYATREGDYVLFHHEGGVDVGDVDAKAQKLLVGVDEKLNPEDIKKHLLVHAPEDKKEILASFISGLFNFYEDLYFTYLEINPLVVTKDGVYVLDLAAKVDATADYICKVKWGDIEFPPPFGREAYPEEAYIADLDAKSGASLKLTLLNPKGRIWTMVAGGGASVVYSDTICDLGGVNELANYGEYSGAPSEQQTYDYAKTILSLMTREKHPDGKILIIGGSIANFTNVAATFKGIVRAIRDYQGPLKEHEVTIFVRRGGPNYQEGLRVMGEVGKTTGIPIHVFGTETHMTAIVGMALGHRPIPNQPPTAAHTANFLLNASGSTSTPAPSRTASFSESRADEVAPAKKAKPAMPQDSVPSPRSLQGKSTTLFSRHTKAIVWGMQTRAVQGMLDFDYVCSRDEPSVAAMVYPFTGDHKQKFYWGHKEILIPVFKNMADAMRKHPEVDVLINFASLRSAYDSTMETMNYAQIRTIAIIAEGIPEALTRKLIKKADQKGVTIIGPATVGGIKPGCFKIGNTGGMLDNILASKLYRPGSVAYVSRSGGMSNELNNIISRTTDGVYEGVAIGGDRYPGSTFMDHVLRYQDTPGVKMIVVLGEIGGTEEYKICRGIKEGRLTKPIVCWCIGTCATMFSSEVQFGHAGACANQASETAVAKNQALKEAGVFVPRSFDELGEIIQSVYEDLVANGVIVPAQEVPPPTVPMDYSWARELGLIRKPASFMTSICDERGQELIYAGMPITEVFKEEMGIGGVLGLLWFQKRLPKYSCQFIEMCLMVTADHGPAVSGAHNTIICARAGKDLVSSLTSGLLTIGDRFGGALDAAAKMFSKAFDSGIIPMEFVNKMKKEGKLIMGIGHRVKSINNPDMRVQILKDYVRQHFPATPLLDYALEVEKITTSKKPNLILNVDGLIGVAFVDMLRNCGSFTREEADEYIDIGALNGIFVLGRSMGFIGHYLDQKRLKQGLYRHPWDDISYVLPEHMSM
[2]
  binding: binds

B3: recombinant ACLY protein (Sino Biological), P53396 1-1101 (enzyme)
chain: B2 chain
[3]
  binding: binds

Reference: paper PMC8860602
